Measurements reported in PubChem BioAssay AID1671195 (Yale University, 2021)
Purpose: 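Genes whose knockdown alters LDL uptake in liver cancer cells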 (primary screen). Cell system: human Huh7 hepatoma cells. Knock-down reagent: siRNA pool against human genes, 18 nM. Duration: about 2 to 2.5 days of knockdown, then 8 h LDL uptake. Conditions: DiI-labelled LDL at 30 µg/ml for 8 h, in lipoprotein-deficient serum medium. Measured: 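Fluorescent LDL signal imaged in cells, scaled to the plate median, robust z-score for each replicate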. Scale: robust z-score: higher = more LDL uptake after knockdown. Hit rule: 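Active when two or more replicates show a robust z-score above 2 or below -2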.
Shown is one part, drawn at random, of about 22,000 reagents tested. About 1,510 of them (6.9%) count as active. 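Active includes knockdowns raising or lowering LDL uptake; positive z-scores mean more uptake, negative mean less.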 Entries without a mark were called inactive.

GP2 — robust z-score, replicate 1: 0.803; robust z-score, replicate 2: 0.796; robust z-score, replicate 3: -1.09
IL6ST — robust z-score, replicate 1: -1.07; robust z-score, replicate 2: -3.53; robust z-score, replicate 3: -0.977
FIRRM — robust z-score, replicate 1: -1.35; robust z-score, replicate 2: -0.652; robust z-score, replicate 3: -1.96
RBM22P1 — robust z-score, replicate 1: 0.869; robust z-score, replicate 2: 0.712; robust z-score, replicate 3: 0.579
MRPL15 — robust z-score, replicate 1: 0.966; robust z-score, replicate 2: -0.339; robust z-score, replicate 3: 0.976
YAE1 — robust z-score, replicate 1: 0.156; robust z-score, replicate 2: 0.124; robust z-score, replicate 3: -0.731
KCNQ3 — robust z-score, replicate 1: -2.13 (active); robust z-score, replicate 2: -1.73; robust z-score, replicate 3: -2.37
TGM6 — robust z-score, replicate 1: -0.115; robust z-score, replicate 2: -0.315; robust z-score, replicate 3: -0.238
LOC440909 (retired record) — robust z-score, replicate 1: 2.15; robust z-score, replicate 2: 1.54; robust z-score, replicate 3: 1.44
KIR3DX1 — robust z-score, replicate 1: -1.81; robust z-score, replicate 2: -1.88; robust z-score, replicate 3: -1.5
HTN3 — robust z-score, replicate 1: -1.25; robust z-score, replicate 2: -0.0529; robust z-score, replicate 3: -0.829
GIGYF2 — robust z-score, replicate 1: -0.851; robust z-score, replicate 2: -0.0987; robust z-score, replicate 3: 0.337
ZNF711 — robust z-score, replicate 1: -1.25; robust z-score, replicate 2: -0.827; robust z-score, replicate 3: -0.645
SLC44A2 — robust z-score, replicate 1: 0.67; robust z-score, replicate 2: 0.665; robust z-score, replicate 3: -0.387
LOC440483 (retired record) — robust z-score, replicate 1: 0.0488; robust z-score, replicate 2: -0.684; robust z-score, replicate 3: -0.158
MYSM1 — robust z-score, replicate 1: -0.582; robust z-score, replicate 2: -1.18; robust z-score, replicate 3: -0.154
LOC441941 (retired record) — robust z-score, replicate 1: 0.149; robust z-score, replicate 2: 0.269; robust z-score, replicate 3: 0.284
NUS1P1 — robust z-score, replicate 1: 0.742; robust z-score, replicate 2: 0.535; robust z-score, replicate 3: 0.857
ZNF582 — robust z-score, replicate 1: 0.275; robust z-score, replicate 2: 0.0238; robust z-score, replicate 3: 0.245
TWSG1 — robust z-score, replicate 1: 0.461; robust z-score, replicate 2: 0.0125; robust z-score, replicate 3: -0.0957
DHRS1 — robust z-score, replicate 1: 0.664; robust z-score, replicate 2: 0.328; robust z-score, replicate 3: 0.367
CTAGE10P — robust z-score, replicate 1: 0.29; robust z-score, replicate 2: 0.119; robust z-score, replicate 3: 0.0528
RGL1 — robust z-score, replicate 1: -0.292; robust z-score, replicate 2: -0.229; robust z-score, replicate 3: -0.153
SLC7A14 — robust z-score, replicate 1: -1.05; robust z-score, replicate 2: -0.837; robust z-score, replicate 3: -1.05

A portion from the list above:
TGM6 — robust z-score, replicate 1: -0.115; robust z-score, replicate 2: -0.315; robust z-score, replicate 3: -0.238
LOC440909 (retired record) — robust z-score, replicate 1: 2.15; robust z-score, replicate 2: 1.54; robust z-score, replicate 3: 1.44
